From patent publication US8889638B2, “Stimulus-triggered prodrugs” (The Regents of the University of California, priority 2010, dated 2014) come the findings set out here.

The first data set can be described thus: Cleavage of boronic ester/acid protected compounds by H2O2 (UV-Vis, rate constant, HPLC).
Conditions: not given
The class given is physicochemical. How it is done: Absorption spectra of compounds B1-B16 were taken on a Perkin-Elmer Lambda 25 UV-visible spectrophotometer. To a 1.0 mL solution at 0.05 mM concentration in HEPES buffer (50 mM, pH 7.5) was added H2O2 (10 uL (0.09 M) in HEPES for compounds B1-B12 and B14-B16, 10 uL (0.9 M) in HEPES for compound B3, and 2.8 uL (0.09 M) in HEPES for compound B13). Spectra were monitored over time at room temperature. Absorption spectra of compounds B17-B21 were taken on a Perkin-Elmer Lambda 25 UV-visible spectrophotometer. To a 1.0 mL solution at 0.05 mM concentration of compounds 1-7 in HEPES buffer (50 mM, pH=7.5) was added H2O2 (10 uL, 0.09 M in HEPES) or KO2 (0.10 mM) with catalase (5 U). Hydrolytic stability was measured by monitoring samples of B19-B21 in HEPES buffer for a 24 h time period. Spectra were monitored over time at room temperature.
The pseudo-first order rate constant was calculated by monitoring the absorption spectra over time in the presence of excess hydrogen peroxide. To a 1.0 mL solution of compounds B1-B3 and B10-B14 in HEPES buffer (50 mM, pH 7.5) at 50 μM was added H2O2 to final concentrations of 150 μM, 250 μM, 500 μM, 750 μM, and 900 μM. Spectra were monitored over 15-30 min at room temperature with at least 50 spectra recorded. The change in absorption at 302 nm for B1-B3, 272 nm for B10, 312 nm for B11, 268 for B12, 306 nm for B13, and 303 nm for B14 were monitored. For compounds B1-B3 and B10-B11, the rate constant (kobs) was found from monitoring the appearance of the monitored absorption peak by plotting the linear slope of ln [(A∞−At)/(A∞)] vs. time (where A∞ is the absorbance of a 50 μM sample of the methyl salicylate for B1-B3, maltol for B10, and 1,2-HOPO for B11). For compounds B12-B14 the rate constant (kobs) was found from monitoring the disappearance of the monitored absorption peak by plotting the linear slope of ln [(A−AZBG)/(A0−AZBG)] vs. time (where AZBG is the absorbance of a 50 μM sample of the ZBG and A0 is the initial absorbance of […]).^3 The rate of conversion was determined from the slope of the line of kobs vs. [H2O2]. The pseudo-first order rate constant was calculated following literature procedure.^[15] To a 1.0 mL solution of compounds B19-B21 in HEPES buffer at 50 μM was added H2O2 to final concentrations of 150 μM, 250 μM, 500 μM, 750 μM, and 900 μM. Spectra were monitored over 15-30 min at room temperature with at least 50 spectra recorded. The change in absorption at 292 nm for B19 and 252 nm for B20 and B21 were monitored. The rate constant (kobs) was found from the linear slope of ln [(A−AZBG)/(A0−AZBG)] vs. time (where AZBG is the absorbance of a 50 μM sample of the ZBG and A0 is the initial absorbance of B19-B21). The rate of conversion was determined from the slope of the line of kobs vs. [H2O2].
Analytical HPLC was performed on a HP Series 1050 system equipped with a Vydac® C18 reverse phase column (218 TP, 250×4.6 mm, 5 μm). […] Starting with 95% A and 5% B, an […] gradient was run for 15 min to a final solvent mixture of 5% A and 95% B, which was held for 5 min before ramping back down to 95% A and 5% B in 2 min and holding for an additional 4 min. Compounds were prepared in HEPES buffer (50 mM, pH 7.5) at a concentration of 1 mM. Retention times of compounds were determined under identical HPLC conditions prior to and after reaction with H2O2. LC-MS(+) was performed on compounds B6, B15 and B16 to confirm cleavage of the boronic ester to the phenolic moiety.
In the case of `COC(=O)c1ccccc1B1OC(C)(C)C(C)(C)O1` [Compound B3, Methyl 2-(4,4,5,5-tetramethyl-1,3,2-dioxaborolan-2-yl)benzoate], the “excess of H2O2 required for deprotection in a comparable time frame” value amounted to 180 fold.

The data set is the same for the next values; noted with them: 0.05 mM in HEPES pH 7.5, H2O2 18 eq.
On to `COC(=O)c1ccccc1SCc1ccc(B2OC(C)(C)C(C)(C)O2)cc1` [Compound B4, Methyl 2-((4-(4,4,5,5-tetramethyl-1,3,2-dioxaborolan-2-yl)benzyl)thio)benzoate], for which the “cleavage of the protecting group / release of the active compound in the presence of H2O2” value was “no cleavage”.

Regarding `COC(=O)c1ccccc1NCc1ccc(B2OC(C)(C)C(C)(C)O2)cc1` [Compound B5, Methyl 2-((4-(4,4,5,5-tetramethyl-1,3,2-dioxaborolan-2-yl)benzyl)amino)benzoate], the “cleavage of the protecting group / release of the active compound in the presence of H2O2” value was “no formation of 2-aminobenzoate”. With `COC(=O)c1ccc(NCc2ccc(B3OC(C)(C)C(C)(C)O3)cc2)cc1` [Compound B6, Methyl 4-((4-(4,4,5,5-tetramethyl-1,3,2-dioxaborolan-2-yl)benzyl)amino)benzoate], the “cleavage of the protecting group / release of the active compound in the presence of H2O2” value is “no formation of 4-aminobenzoate”.

As for `COC(=O)c1ccc(CNCc2ccc(B3OC(C)(C)C(C)(C)O3)cc2)cc1` [Compound B7, Methyl 4-(((4-(4,4,5,5-tetramethyl-1,3,2-dioxaborolan-2-yl)benzyl)amino)methyl)benzoate], the “cleavage of the protecting group / release of the active compound in the presence of H2O2” value is on record as “no cleavage”. As for `COC(=O)c1ccc(CNC(=O)OCc2ccc(B3OC(C)(C)C(C)(C)O3)cc2)cc1` [Compound B8, Methyl 4(((((4-(4,4,5,5-tetramethyl-1,3,2-dioxaborolan-2-yl)benzyl)oxy)carbonyl)amino)methyl)benzoate], the “cleavage of the protecting group / release of the active compound in the presence of H2O2” value is reported as “desired benzyl amine is released”. For `COC(=O)c1ccccc1CNC(=O)OCc1ccc(B2OC(C)(C)C(C)(C)O2)cc1` [Compound B9, Methyl 2-(((((4-(4,4,5,5-tetramethyl-1,3,2-dioxaborolan-2-yl)benzyl)oxy)carbonyl)amino)methyl)benzoate], the “cleavage of the protecting group / release of the active compound in the presence of H2O2” value is given as “desired benzyl amine is released”. The same measure, in the same setting: as for `CC1(C)OB(c2ccc(CN(c3cccc4cccnc34)S(C)(=O)=O)cc2)OC1(C)C` [Compound B15, N-(Quinolin-8-yl)-N-(4-(4,4,5,5-tetramethyl-1,3,2-dioxaborolan-2-yl)benzyl)methanesulfonamide], the entry is “did not show cleavage”; as for `CC1(C)OB(c2ccc(CONC(=O)c3ccccc3)cc2)OC1(C)C` [Compound B16, N-((4-(4,4,5,5-Tetramethyl-1,3,2-dioxaborolan-2-yl)benzyl)oxy)benzamide], “no release of the desired hydroxamic acid ligand”. Regarding `CC1(C)OB(c2ccc(COn3c(C(=O)NCc4ccc(-c5ccccc5)cc4)cccc3=O)cc2)OC1(C)C` [Compound B17, N-([1,1′-biphenyl]-4-ylmethyl)-6-oxo-1-((4-(4,4,5,5-tetramethyl-1,3,2-dioxaborolan-2-yl)benzyl)oxy)-1,6-dihydropyridine-2-carboxamide], the “cleavage of the protecting group / release of the active compound in the presence of H2O2” value is listed as “confirmed”. As to `CC1(C)OB(c2ccc(COc3c(C(=O)NCc4ccc(-c5ccccc5)cc4)occc3=O)cc2)OC1(C)C` [Compound B18, N-([1,1′-biphenyl]-4-ylmethyl)-4-oxo-3-((4-(4,4,5,5-tetramethyl-1,3,2-dioxaborolan-2-yl)benzyl)oxy)-4H-pyran-2-carboxamide], the “cleavage of the protecting group / release of the active compound in the presence of H2O2” value is listed as “confirmed”. For the compound `CC1(C)OB(c2ccc(COn3ccccc3=O)cc2)OC1(C)C` [Compound B19, 1-((4-(4,4,5,5-tetramethyl-1,3,2-dioxaborolan-2-yl)benzyl)oxy)pyridin-2(1H)-one], the “cleavage of the protecting group / release of the active compound in the presence of H2O2” value is given as “clean conversion”.

The next data set is described as follows: Cleavage of sulfonate ester PZBGs and proMMPi by H2O2 (UV-Vis, rate constant, HPLC). The class given is physicochemical. The conditions noted are these: 0.05 mM, HEPES pH 7.5, H2O2 18 equiv, 60 min. How it is done:
Absorption spectra of compounds were taken on a Perkin-Elmer Lambda 25 UV-Visible Spectrophotometer. To a 1.0 mL solution at 0.05 mM concentration of each compound in HEPES buffer (50 mM, pH 7.5) was added H2O2 (10 μL, 0.09M in HEPES) and absorption spectra were monitored over time at room temperature. Hydrolytic stability was measured by monitoring each sample in HEPES buffer over a 24 hour time period.
The pseudo-first order rate constant was calculated following literature procedure. To a 1.0 mL solution of compounds PZBG-1a, PZBG-1b, PZBG-1e, PZBG-5a, and PZBG-5b in HEPES buffer at 50 μM was added H2O2 to final concentrations of 150 μM, 250 μM, 500 μM, 750 μM, and 900 μM. Spectra were monitored over 15-30 min at room temperature with at least 50 spectra recorded at every concentration. The change in absorption at 298 nm for PZBG-1a and PZBG-1b were monitored, while the change in absorption at 288 nm was recorded for PZBG-1e, and 310 nm for PZBG-5a and PZBG-5b. The rate constant (kobs) was found from the linear slope of ln [(A−AZBG)/(Ao−AZBG)] vs. time where AZBG is the absorbance of a 50 μM sample of the ZBG or full-length inhibitor and AO is the initial absorbance of PZBG-1a, PZBG-1b, PZBG-1e, PZBG-5a, and PZBG-5b. The rate of conversion was determined from the slope of the line of kobs vs. [H2O2].
Analytical HPLC was performed on a HP Series 1050 system equipped with a Vydac® C18 reverse phase column (218 TP, 250×4.6 mm, 5 μm). […] Starting with 95% A and 5% B, an […] gradient was run for 15 min to a final solvent mixture of 5% A and 95% B, which was held for 5 min before ramping back down to 95% A and 5% B in 2 min and holding for an additional 4 min. Compounds ZBG-1a and PZBG-1a were prepared in HEPES buffer (50 mM, pH 7.5) at a concentration of 1 mM and retention times were determined. To evaluate cleavage by H2O2, a 1 mM solution of PZBG-1a in HEPES buffer was reacted with a 20-fold excess of H2O2 before analyzing under identical HPLC conditions as before.
As for `O=c1ccccn1OS(=O)(=O)c1ccc([N+](=O)[O-])cc1` [PZBG-1c, 2-Oxopyridin-1(2H)-yl 4-nitrobenzenesulfonate], the “cleavage of the sulfonate ester protecting group in the presence of H2O2” value is listed as “rapid hydrolysis”. As to `Cc1occc(=O)c1OS(=O)(=O)c1ccccc1` [PZBG-2a, 2-Methyl-4-oxo-4H-pyran-3-yl benzenesulfonate], the “cleavage of the sulfonate ester protecting group in the presence of H2O2” value is listed as “no cleavage”. Same read-out and setting: as for `Cc1c(OS(=O)(=O)c2ccccc2)c(=O)ccn1C` [PZBG-3a, 1,2-Dimethyl-4-oxo-1,4-dihydropyridin-3-yl benzenesulfonate], the entry is “no cleavage”; as for `O=c1cccccc1OS(=O)(=O)c1ccccc1` [PZBG-4a, 7-Oxocyclohepta-1,3,5-trien-1-yl benzenesulfonate], “no cleavage”; as for `O=C(NCc1ccc(-c2ccccc2)cc1)c1cccc(=O)n1OS(=O)(=O)c1ccccc1` [PZBG-5a, 6-(([1,1′-Biphenyl]-4-ylmethyl)carbamoyl)-2-Oxopyridin-1(2H)-yl benzenesulfonate], “achieved”. As to `O=C(O)c1ccc(S(=O)(=O)On2c(C(=O)NCc3ccc(-c4ccccc4)cc3)cccc2=O)cc1` [PZBG-5b, 4-(((6-(([1,1′-Biphenyl]-4-ylmethyl)carbamoyl)-2-Oxopyridin-1(2H)yl)oxy)sulfonyl)benzoic acid], the “cleavage of the sulfonate ester protecting group in the presence of H2O2” value is given as “achieved”. For the compound `O=C(NCc1ccc(-c2ccccc2)cc1)c1occc(=O)c1OS(=O)(=O)c1ccccc1` [PZBG-6a, 2-(([1,1′-Biphenyl]-4-ylmethyl)carbamoyl)-4-oxo-4H-pyran-3-yl benzenesulfonate], the “cleavage of the sulfonate ester protecting group in the presence of H2O2” value was “did not result in cleavage”.
